{"sequences": {"note": "Chains of the proteins cited; added tags and fusions are not shown.", "UniProt O49686": "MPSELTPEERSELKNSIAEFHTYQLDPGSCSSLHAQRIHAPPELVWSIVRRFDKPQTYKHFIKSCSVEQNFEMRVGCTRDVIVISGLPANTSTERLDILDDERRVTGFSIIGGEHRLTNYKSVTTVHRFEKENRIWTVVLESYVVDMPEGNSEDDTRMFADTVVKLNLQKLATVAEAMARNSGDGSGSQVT"}, "source": "paper PMC5645313", "binders": {"B1": {"name": "FLAG-GARU (GA receptor RING E3 ubiquitin ligase, at2g40830), wild type (enzyme, UniProt O22197 1-328)", "chain": "MSSSRNTHWCHRCQRAVRLHGQEPVCFYCGGGFVEELDMAQASPFDMFRSHRGVVERDQTFDLMDAFSVFMRNRLAERSHDREIRGRTISSGPENFPGLAPLLIFGGQVPYRLTGDNAVEALFNGGSPGIGITRGNTGDYFFGPGLEELFEQLSAGTTRRGPPPAPRSAIDALPTIKIAQRHLRSSDSNCPVCKDEFELGSEAKQMPCNHIYHSDCIVPWLVQHNSCPVCRQELPSASGPSSSQNRTTPTRNYRSSSSSSSSNSRENGNERRNPFSSFWPFRSSGSSSSSTQNRGGTRNSDTSDENHNYHQQQHQQSYMGYSGWPFDY"}, "B2": {"name": "FLAG-GARU^Y321F (enzyme, UniProt O22197 1-328)", "chain": "MSSSRNTHWCHRCQRAVRLHGQEPVCFYCGGGFVEELDMAQASPFDMFRSHRGVVERDQTFDLMDAFSVFMRNRLAERSHDREIRGRTISSGPENFPGLAPLLIFGGQVPYRLTGDNAVEALFNGGSPGIGITRGNTGDYFFGPGLEELFEQLSAGTTRRGPPPAPRSAIDALPTIKIAQRHLRSSDSNCPVCKDEFELGSEAKQMPCNHIYHSDCIVPWLVQHNSCPVCRQELPSASGPSSSQNRTTPTRNYRSSSSSSSSNSRENGNERRNPFSSFWPFRSSGSSSSSTQNRGGTRNSDTSDENHNYHQQQHQQSYMGFSGWPFDY"}, "B3": {"name": "nYFP-GARU (N-terminal half of YFP fused GARU) (enzyme, UniProt O22197 1-328)", "chain": "MSSSRNTHWCHRCQRAVRLHGQEPVCFYCGGGFVEELDMAQASPFDMFRSHRGVVERDQTFDLMDAFSVFMRNRLAERSHDREIRGRTISSGPENFPGLAPLLIFGGQVPYRLTGDNAVEALFNGGSPGIGITRGNTGDYFFGPGLEELFEQLSAGTTRRGPPPAPRSAIDALPTIKIAQRHLRSSDSNCPVCKDEFELGSEAKQMPCNHIYHSDCIVPWLVQHNSCPVCRQELPSASGPSSSQNRTTPTRNYRSSSSSSSSNSRENGNERRNPFSSFWPFRSSGSSSSSTQNRGGTRNSDTSDENHNYHQQQHQQSYMGYSGWPFDY"}, "B4": {"name": "HA-GARU (enzyme, UniProt O22197 1-328)", "chain": "MSSSRNTHWCHRCQRAVRLHGQEPVCFYCGGGFVEELDMAQASPFDMFRSHRGVVERDQTFDLMDAFSVFMRNRLAERSHDREIRGRTISSGPENFPGLAPLLIFGGQVPYRLTGDNAVEALFNGGSPGIGITRGNTGDYFFGPGLEELFEQLSAGTTRRGPPPAPRSAIDALPTIKIAQRHLRSSDSNCPVCKDEFELGSEAKQMPCNHIYHSDCIVPWLVQHNSCPVCRQELPSASGPSSSQNRTTPTRNYRSSSSSSSSNSRENGNERRNPFSSFWPFRSSGSSSSSTQNRGGTRNSDTSDENHNYHQQQHQQSYMGYSGWPFDY"}}, "key": {"[1]": {"target": "T1, biotin-GID1A (biotinylated GA receptor GID1A) (Arabidopsis thaliana) (UniProt Q9MAA7)", "T1 sequence (chain, biotin (added by BirA during cell-free synthesis))": "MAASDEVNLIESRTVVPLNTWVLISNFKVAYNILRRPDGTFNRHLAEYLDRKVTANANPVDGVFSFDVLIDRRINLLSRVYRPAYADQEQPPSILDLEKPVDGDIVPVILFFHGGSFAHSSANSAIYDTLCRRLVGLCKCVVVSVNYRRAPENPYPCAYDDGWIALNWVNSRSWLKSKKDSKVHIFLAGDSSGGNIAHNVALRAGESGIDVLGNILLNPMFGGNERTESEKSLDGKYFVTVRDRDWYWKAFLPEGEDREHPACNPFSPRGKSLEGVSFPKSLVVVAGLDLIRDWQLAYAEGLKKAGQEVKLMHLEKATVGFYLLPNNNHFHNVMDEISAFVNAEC", "test": "AlphaScreen or HTRF; screen of 204 FLAG-tagged Arabidopsis RING-type E3 ligases against biotinylated GID1A; 1 µl of each wheat cell-free product in 15 µl AlphaScreen buffer (100 mM Tris-HCl pH 8.0, 0.1% Tween20, 1 mg/ml BSA), 25 °C, 1 h; streptavidin donor beads, anti-FLAG M2 antibody with Protein A acceptor beads; background controlled with E. coli DHFR"}, "[2]": {"target": "T1, biotin-GID1A (biotinylated GA receptor GID1A) (Arabidopsis thaliana)", "test": "AlphaScreen or HTRF; FLAG-GARU or its mutants pre-incubated with TAGK2-His (wild type or kinase dead) in kinase buffer with 100 µM ATP at 26 °C for 90 min, then 1 µl of the mixture with biotin-GID1A in AlphaScreen buffer; signal relative to non-phosphorylated WT FLAG-GARU with biotin-GID1A"}, "[3]": {"target": "T2, GID1A–GA–DELLA complex (biotin-GID1A with V5-GAI and 1 µM GA3) (Arabidopsis thaliana) (UniProt Q9MAA7+Q9LQT8)", "T2 sequence (chain, biotin (added by BirA during cell-free synthesis)) 1": "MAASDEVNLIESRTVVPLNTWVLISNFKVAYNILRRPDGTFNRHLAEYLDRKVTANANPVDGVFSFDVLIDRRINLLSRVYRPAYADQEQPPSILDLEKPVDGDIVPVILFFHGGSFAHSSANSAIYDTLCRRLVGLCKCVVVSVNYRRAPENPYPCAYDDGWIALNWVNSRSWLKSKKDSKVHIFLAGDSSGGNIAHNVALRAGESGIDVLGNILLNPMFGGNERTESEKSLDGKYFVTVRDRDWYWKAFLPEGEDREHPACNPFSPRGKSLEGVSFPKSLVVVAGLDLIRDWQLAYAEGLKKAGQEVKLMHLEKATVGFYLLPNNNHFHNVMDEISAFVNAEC", "T2 sequence (chain, biotin (added by BirA during cell-free synthesis)) 2": "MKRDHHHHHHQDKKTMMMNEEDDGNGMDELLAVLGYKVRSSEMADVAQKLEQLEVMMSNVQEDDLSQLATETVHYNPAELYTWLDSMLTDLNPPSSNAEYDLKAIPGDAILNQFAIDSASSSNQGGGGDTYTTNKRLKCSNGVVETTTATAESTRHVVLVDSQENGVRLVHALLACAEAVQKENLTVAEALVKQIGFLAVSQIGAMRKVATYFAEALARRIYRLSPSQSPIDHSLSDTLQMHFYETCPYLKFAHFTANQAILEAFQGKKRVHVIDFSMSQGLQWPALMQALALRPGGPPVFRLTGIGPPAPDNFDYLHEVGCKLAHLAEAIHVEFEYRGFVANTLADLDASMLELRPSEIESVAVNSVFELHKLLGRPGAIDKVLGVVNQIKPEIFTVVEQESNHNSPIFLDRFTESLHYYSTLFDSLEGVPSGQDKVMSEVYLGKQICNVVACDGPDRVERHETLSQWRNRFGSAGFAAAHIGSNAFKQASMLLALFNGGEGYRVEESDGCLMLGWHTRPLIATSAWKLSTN", "test": "AlphaScreen or HTRF; 0.5 µl biotin-GID1A, 0.5 µl FLAG-GARU or FLAG-GAI, 0.5 µl V5-GARU or V5-GAI, with or without 1 µM GA3 (1% DMSO), AlphaScreen buffer, 15 µl, 25 °C, 1 h; wheat cell-free products"}, "[4]": {"target": "T1, biotin-GID1A (biotinylated GA receptor GID1A) (Arabidopsis thaliana)", "test": "AlphaScreen or HTRF; 0.5 µl biotin-GID1A, 0.5 µl FLAG-GARU or FLAG-GAI, 0.5 µl V5-GARU or V5-GAI, with or without 1 µM GA3 (1% DMSO), AlphaScreen buffer, 15 µl, 25 °C, 1 h; wheat cell-free products"}, "[5]": {"target": "T3, GID1A-cYFP (C-terminal half of YFP fused GID1A) (Arabidopsis thaliana) (UniProt Q9MAA7)", "T3 sequence": "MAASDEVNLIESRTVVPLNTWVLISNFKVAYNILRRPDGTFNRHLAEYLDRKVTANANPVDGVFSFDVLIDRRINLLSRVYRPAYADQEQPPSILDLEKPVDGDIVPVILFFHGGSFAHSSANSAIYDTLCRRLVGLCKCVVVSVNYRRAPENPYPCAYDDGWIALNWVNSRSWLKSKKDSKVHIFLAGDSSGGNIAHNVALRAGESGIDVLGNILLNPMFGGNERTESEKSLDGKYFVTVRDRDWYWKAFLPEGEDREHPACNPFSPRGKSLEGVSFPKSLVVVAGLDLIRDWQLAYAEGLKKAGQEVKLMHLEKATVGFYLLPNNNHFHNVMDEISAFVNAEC", "test": "split reporter; BiFC in Arabidopsis mesophyll protoplasts, GID1A-cYFP and nYFP-GARU co-expressed, with or without 10 µM GA3 for 6 h; YFP fluorescence in the nucleus"}, "[6]": {"target": "T4, GID1A-V5 (Arabidopsis thaliana) (UniProt Q9MAA7)", "T4 sequence": "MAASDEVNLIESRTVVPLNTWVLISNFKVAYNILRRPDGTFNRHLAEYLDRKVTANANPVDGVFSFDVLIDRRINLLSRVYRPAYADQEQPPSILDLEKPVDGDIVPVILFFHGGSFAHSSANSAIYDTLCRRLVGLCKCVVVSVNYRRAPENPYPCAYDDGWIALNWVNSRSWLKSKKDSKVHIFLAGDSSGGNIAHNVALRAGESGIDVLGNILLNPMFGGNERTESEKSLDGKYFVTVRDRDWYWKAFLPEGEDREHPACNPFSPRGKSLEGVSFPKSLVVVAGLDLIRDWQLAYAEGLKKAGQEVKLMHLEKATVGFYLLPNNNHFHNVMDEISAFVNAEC", "test": "pull-down; in vitro pull-down (co-immunoprecipitation) of wheat cell-free recombinant proteins: HA-GARU pre-incubated with FLAG-TAGK2 or FLAG-TAGK3 (wild type or kinase dead) in kinase buffer at 26 °C for 60 min, then with GID1A-V5 or V5-PYR1 at 26 °C for 60 min; anti-V5 antibody and Protein G Sepharose; wash 50 mM Tris-HCl pH 8.0, 150 mM NaCl, 1% Triton X-100; blot with anti-HA"}, "[7]": {"target": "V5-PYR1 (Arabidopsis thaliana) (UniProt O49686)", "test": "pull-down; in vitro pull-down (co-immunoprecipitation) of wheat cell-free recombinant proteins: HA-GARU pre-incubated with FLAG-TAGK2 or FLAG-TAGK3 (wild type or kinase dead) in kinase buffer at 26 °C for 60 min, then with GID1A-V5 or V5-PYR1 at 26 °C for 60 min; anti-V5 antibody and Protein G Sepharose; wash 50 mM Tris-HCl pH 8.0, 150 mM NaCl, 1% Triton X-100; blot with anti-HA"}}, "note": "These are yes or no findings as the source states them, for the method shown. For some assays here: In cells and extracts the contact can be indirect. Some results given as binding are weak or reduced against the parent protein; the word gives no strength. Where a sequence is shown, tags or fusion partners need not be part of it.", "data": [{"binder": "B1", "values": [{"measurement": "binding", "setting": "[1]", "result": "binds"}, {"measurement": "binding", "setting": "[2]", "result": "binds"}, {"measurement": "binding", "setting": "[3]", "result": "binds"}, {"measurement": "binding", "setting": "[4]", "result": "binds"}]}, {"binder": "B2", "values": [{"measurement": "binding", "setting": "[2]", "result": "binds"}]}, {"binder": "B3", "values": [{"measurement": "binding", "setting": "[5]", "result": "binds"}]}, {"binder": "B4", "values": [{"measurement": "binding", "setting": "[6]", "result": "binds"}, {"measurement": "binding", "setting": "[7]", "result": "no binding"}]}]}
